# Test results: PubChem BioAssay AID330 (DTP/NCI, 2004)
# The list is a part of this screen's results and no random one: it is rich in T/C values a quarter to a half above the control, in often repeated tests (any T/C) and in doses without a T/C. Further doses and runs are listed elsewhere. T/C: endpoint of the treated group in % of that of the vehicle group. Some doses have a count of surviving animals in place of a T/C: the source files T/C as zero there, which appears to mark a toxic dose or a test without result, not a measured value. Some survivor counts are full or nearly so, which does not show that the dose was tolerated: the source hardly ever lists a survival T/C far under the control, and the zero likely stands for such cases as well. Counts of survivors are from the toxicity check (mostly the fifth day) where no day follows; animals may have died later. Schedule codes are those of the source, read here as Q, the interval in days (D) or hours (H), X, the number of doses. Where survival is the endpoint, the PubChem record calls one and a half times the control and up active, and a quarter to a half above the control has no call in these data; cut-offs in other NCI protocols can differ. Some entries were tested several times; the values are given in rising order.
# Test system: P388 leukemia ip, CD2F1 mice, survival T/C
# Experiment: NCI In Vivo Anticancer Drug Screen. Data for tumor model P388 Leukemia (intraperitoneal) in CD2F1 (CDF1) mice
# Conditions: T/C endpoint: median survival time, higher T/C = longer survival
# [1] = dose: 100.0 mg/kg/injection, schedule: Q01DX005 (ip), vehicle: Klucel (hydroxypropylcellulose) (HPC)
# [2] = dose: 200.0 mg/kg/injection, schedule: Q01DX005 (ip), vehicle: Klucel (hydroxypropylcellulose) (HPC)
# [3] = dose: 200.0 mg/kg/injection, schedule: Q01DX005 (ip), vehicle: saline with Tween-80
# [4] = dose: 100.0 mg/kg/injection, schedule: Q01DX009 (ip), vehicle: saline
# [5] = dose: 50.0 mg/kg/injection, schedule: Q01DX009 (ip), vehicle: saline
# [6] = dose: 200.0 mg/kg/injection, schedule: Q01DX009 (ip), vehicle: saline
smiles,measurement,setting,value
CCOC(=O)c1ccc(NC(=O)Oc2cc(C)ccc2C)cc1,survivor count,"dose: 30.0 mg/kg/injection, schedule: Q01DX005 (ip), vehicle: saline with Tween-80",5 of 6
same,survivor count,"dose: 60.0 mg/kg/injection, schedule: Q01DX005 (ip), vehicle: saline with Tween-80",5 of 6
same,survivor count,"dose: 120.0 mg/kg/injection, schedule: Q01DX005 (ip), vehicle: saline with Tween-80",6 of 6
same,survivor count,"dose: 240.0 mg/kg/injection, schedule: Q01DX005 (ip), vehicle: saline with Tween-80",6 of 6
COc1cccc(/C=N/NC(=S)Nc2cc(C(F)(F)F)cc(C(F)(F)F)c2)c1O,survivor count,[1],3 of 5
same,survivor count,[2],2 of 5
CCCNNC(N)=S,survivor count,"dose: 50.0 mg/kg/injection, schedule: Q01DX009 (ip), vehicle: other",3 of 6
same,survivor count,"dose: 100.0 mg/kg/injection, schedule: Q01DX009 (ip), vehicle: other",0 of 6
same,survivor count,"dose: 200.0 mg/kg/injection, schedule: Q01DX009 (ip), vehicle: other",0 of 6
O=C1CSC(=S)N1c1cccc(Cl)c1,T/C,"dose: 200.0 mg/kg/injection, schedule: Q01DX009 (ip), vehicle: Klucel (hydroxypropylcellulose) (HPC)",130 % of control
CC1(CBr)C2CCC1C(=O)C2 (stereo unspecified),survivor count,"dose: 50.0 mg/kg/injection, schedule: Q01DX005 (ip), vehicle: saline with Tween-80",2 of 6
same,survivor count,"dose: 100.0 mg/kg/injection, schedule: Q01DX005 (ip), vehicle: saline with Tween-80",1 of 6
same,survivor count,[3],0 of 6
N#Cc1c(-c2ccccc2)c(C#N)c(=O)n(N)c1N,survivor count,[1],4 of 6
same,survivor count,[2],2 of 6
NC(N)=N/N=C/c1ccc(Cl)cc1Cl,survivor count,[4],3 of 6
COc1cc2oc3cc(OC)c(OC)c(CC=C(C)C)c3c(=O)c2c(O)c1CC=C(C)C,survivor count,"dose: 50.0 mg/kg/injection, schedule: Q01DX005 (ip), vehicle: Klucel (hydroxypropylcellulose) (HPC)",6 of 6
CS(=O)(=O)OCC#CCOS(C)(=O)=O,T/C,"dose: 6.25 mg/kg/injection, schedule: Q01DX009 (ip), vehicle: Klucel (hydroxypropylcellulose) (HPC)",133 and 140 % of control
same,T/C,"dose: 12.5 mg/kg/injection, schedule: Q01DX009 (ip), vehicle: Klucel (hydroxypropylcellulose) (HPC)",140 and 143 % of control
same,survivor count,"dose: 50.0 mg/kg/injection, schedule: Q01DX009 (ip), vehicle: Klucel (hydroxypropylcellulose) (HPC)",1 of 6
CCOC(=O)/C(C#N)=C/Nc1cc(C(=O)OC)ccc1C,survivor count,[3],3 of 5
[Cl][Ni][Cl],survivor count,"dose: 25.0 mg/kg/injection, schedule: Q01DX009 (ip), vehicle: saline",5 of 6
same,survivor count,[5],0 of 6
same,survivor count,[4],0 of 6
same,survivor count,[6],0 of 6
CCCCCC(CN(C)C)C(=O)/C=C/c1ccc(C)cc1 (stereo unspecified),survivor count,[3],1 of 6
CCC[CH2][Sn]([CH3])([CH2]CC[N+](C)(C)C)[O]C(C)=O (stereo unspecified),survivor count,[4],0 of 6
same,survivor count,[6],0 of 6
CC(C)(C)N1C(=O)C(c2ccccc2)(c2ccccc2)C1/C=C/c1ccccc1 (stereo unspecified),survivor count,[2],5 of 6
C=C(CNC(C)(C)C)C(=O)c1ccccc1,survivor count,[5],0 of 6
same,survivor count,[4],0 of 6
same,survivor count,[6],0 of 6
CCN(CC)CC(=O)O[C@]1(CC)C(=O)OCc2c1cc1n(c2=O)Cc2cc3ccccc3nc2-1,T/C,"dose: 2.0 mg/kg/injection, schedule: Q01DX005 (ip), vehicle: water",136 % of control
same,T/C,"dose: 4.0 mg/kg/injection, schedule: Q01DX005 (ip), vehicle: water",132 and 141 % of control
same,survivor count,"dose: 16.0 mg/kg/injection, schedule: Q01DX005 (ip), vehicle: water",6 of 6
CC(C)C(OCc1ccccc1)C(=O)O (stereo unspecified),survivor count,"dose: 400.0 mg/kg/injection, schedule: Q01DX009 (ip), vehicle: alcohol",3 of 6
